The assay deals with mice, ADJ-PC-20 plasma cell tumor sc, T/C %. Briefly: NCI In Vivo Anticancer Drug Screen. Data for tumor model ADJ-PC-20 Plasma Cell (subcutaneous) in unknown mice. To be noted: T/C endpoint: mean tumor weight, schedule: Q01DX010 (ip), vehicle: saline, evaluation day not shown, higher T/C = larger tumour. The method, then: The antitumor activity of compounds was measured in mice bearing transplantable tumors. Survival or tumor size were measured and the results are expressed as the measurement made in the treated group (T) divided by the measurement made in the vehicle treated control group (C). The tumor model used in this assay is ADJ-PC-20 Plasma Cell (subcutaneous) in unknown mice

This passage reports T/C results from PubChem BioAssay AID332 (DTP/NCI, 2004).

Each structure is given as a SMILES string. The list shows only some results of the screen, not a fair sample: it gathers some chemical classes. Other doses and runs of a compound may be missing. T/C gives the treated animals as a percentage of the vehicle group. Some T/C values are marked as having no survivor count here; that says nothing about deaths at the dose. Schedule codes are those of the source, taken here to give the interval after Q, in days (D) or hours (H), and the number of doses after X.

On to `CN(CCCl)CCCl`, for which the T/C runs as follows: (dose: 0.03 mg/kg/injection) 98 % of control [survivor count not shown]; (dose: 0.06 mg/kg/injection) 130 % of control [survivor count not shown]; (dose: 0.12 mg/kg/injection) 98 % of control [survivor count not shown]; (dose: 0.25 mg/kg/injection) 54 % of control [survivor count not shown].
